Results are given in words; binding and its absence hold for the method and conditions named. Binding seen in cells or lysates may run through a third protein. Some entries that bind do so weakly or less than the wild type.
Target: FLAG-CRM1 (cellular export receptor CRM1, Chromosome Region Maintenance protein 1) (UniProt O14980)
Assay: co-IP

Protein sequences, listed by entry. Tags and fused reporters are not part of them.
UniProt O14980: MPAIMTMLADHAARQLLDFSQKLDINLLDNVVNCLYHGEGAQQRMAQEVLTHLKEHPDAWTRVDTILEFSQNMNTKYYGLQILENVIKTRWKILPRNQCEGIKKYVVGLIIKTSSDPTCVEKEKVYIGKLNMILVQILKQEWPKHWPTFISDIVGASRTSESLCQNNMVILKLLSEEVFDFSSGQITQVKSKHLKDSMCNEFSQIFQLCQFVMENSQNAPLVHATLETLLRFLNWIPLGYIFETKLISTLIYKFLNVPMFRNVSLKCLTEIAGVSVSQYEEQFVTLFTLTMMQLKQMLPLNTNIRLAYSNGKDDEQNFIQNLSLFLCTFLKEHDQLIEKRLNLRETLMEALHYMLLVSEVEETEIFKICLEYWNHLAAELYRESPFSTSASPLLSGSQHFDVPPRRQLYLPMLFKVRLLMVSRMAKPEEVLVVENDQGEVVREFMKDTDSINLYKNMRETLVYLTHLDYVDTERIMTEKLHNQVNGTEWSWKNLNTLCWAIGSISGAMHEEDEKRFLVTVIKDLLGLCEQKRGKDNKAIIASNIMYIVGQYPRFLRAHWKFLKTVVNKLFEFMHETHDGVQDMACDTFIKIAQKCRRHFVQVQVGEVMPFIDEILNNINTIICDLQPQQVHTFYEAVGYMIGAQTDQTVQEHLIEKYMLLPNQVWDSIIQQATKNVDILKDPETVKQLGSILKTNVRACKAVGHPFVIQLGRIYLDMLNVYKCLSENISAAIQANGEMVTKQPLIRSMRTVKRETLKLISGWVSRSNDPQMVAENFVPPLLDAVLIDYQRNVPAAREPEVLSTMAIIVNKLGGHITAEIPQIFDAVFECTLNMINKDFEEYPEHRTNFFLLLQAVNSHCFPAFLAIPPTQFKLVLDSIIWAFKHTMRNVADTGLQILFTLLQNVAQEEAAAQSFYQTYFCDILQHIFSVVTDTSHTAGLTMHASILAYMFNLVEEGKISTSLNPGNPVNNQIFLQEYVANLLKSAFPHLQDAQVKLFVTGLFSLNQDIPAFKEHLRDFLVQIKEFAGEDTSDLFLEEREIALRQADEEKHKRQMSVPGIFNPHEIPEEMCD
UniProt P15682: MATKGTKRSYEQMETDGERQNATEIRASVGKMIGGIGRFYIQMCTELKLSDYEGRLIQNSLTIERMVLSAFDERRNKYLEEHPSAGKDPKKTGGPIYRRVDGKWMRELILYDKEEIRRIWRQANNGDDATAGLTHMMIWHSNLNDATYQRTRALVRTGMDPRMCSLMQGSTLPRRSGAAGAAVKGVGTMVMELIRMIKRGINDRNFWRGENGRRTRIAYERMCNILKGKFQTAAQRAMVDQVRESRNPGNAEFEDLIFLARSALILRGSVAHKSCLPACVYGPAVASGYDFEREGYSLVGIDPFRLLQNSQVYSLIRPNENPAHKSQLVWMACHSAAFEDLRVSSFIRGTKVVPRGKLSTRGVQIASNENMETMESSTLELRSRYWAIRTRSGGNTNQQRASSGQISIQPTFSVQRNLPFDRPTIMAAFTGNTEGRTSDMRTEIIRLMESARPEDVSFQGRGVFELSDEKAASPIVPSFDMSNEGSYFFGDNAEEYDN

nucleoprotein (NP) of influenza virus A/WSN/1933 (H1N1), wild type, expressed from pcDNA4.0/TO (from UniProt P15682 1-498)
binding: binds

Reference: paper PMC6692485
